Assay results: patent US7524823B2, “Macrolides” (Basilea Pharmaceutica AG, priority 2005, dated 2009)

Test system: Human neutrophils
Assay: Modulation of neutrophil elastase production
Format: cell-based
Conditions: test compound 50 μM; fMLP 0.1 μM, cytochalasin B 5 mg/L; blood from 3 donors
Text: The neutrophil granulocyte is a key element of the inflammatory process. The neutrophils migrate to the site of inflammation and can be activated to release toxic products, including proteolytic enzymes such as elastase. […] Elastase is a major secreted product of activated neutrophils and is a major contributor to the destruction of tissue in inflammatory disease. Several bioassays based on the repression of secretion of elastase, have been described and used for the detection of anti-inflammatory products (Johansson, […]. Nat. Prod. 65: 32-41). […] The neutrophils are activated by addition of the bacterial product N-formyl methionyl-leucyl-phenylalanine (fMLP) and cytochalasin B, a stimulator of secretion. The amount of elastase secreted is determined by measuring the reaction of elastase with the chromogenic substrate succinyl-alanyl-alanyl-valyl-nitroanilide ([…]), which generates 4-nitroaniline after cleavage by elastase. […] Human neutrophils are isolated by applying whole heparinized blood to a Histopaque column and collecting the granulocytes by centrifugation. […] The total volume of the reaction mixture is 0.8 mL and concentrations specified are the final concentrations in the mixture. […] Neutrophil preparations from blood from 3 different donors were used in parallel. All samples were measured in duplicate. […]

With `CCC[C@@H]1C[C@@H](C(=O)N[C@@H]([C@H]2O[C@H](SC)[C@H](O)[C@@H](O)[C@H]2O)[C@H](C)Cl)N(C)C1` [Clindamycin, reference compound] the “Average repression of activation (%)” value was 4 ± 0.07%.
